Experimental data as given in article PMC6072100, “Exploring the links between peptoid antibacterial activity and toxicity” (MedChemComm, 2017).
Square brackets hold non-standard residues; d marks the D form. Peptide text beside a SMILES is read from it. N(4-F-Bzl)Gly = O=C(O)CNCc1ccc(F)cc1; Gly(N-(CH2)6NH2) = NCCCCCCNCC(=O)O; Gly(N-2-aminoethyl) = NCCNCC(=O)O; Nspe = C[C@H](NCC(=O)O)c1ccccc1; NhArg = N=C(N)NCCCCNCC(=O)O; Nphe = O=C(O)CNCc1ccccc1; Nlys = NCCCCNCC(=O)O

System: Escherichia coli K-12 wild-type strain (W3110/ATCC27325)
Assay type: cell-based
Settings: for Selectivity Index HaCaT, E. coli: ED50 HaCaT / MIC E. coli; for Selectivity Index HepG2, E. coli: ED50 HepG2 / MIC E. coli; for Average selectivity E. coli: average of selectivity to HaCaT and HepG2, selectivity = toxicity/activity
Description: Escherichia coli K-12 wild-type strain (W3110/ATCC27325, F^–, λ^–, rpoS(Am), rph-1, Inv(rrnD-rrnE)), Pseudomonas aeruginosa PA01 (ATCC 15692) Staphylococcus aureus (3R7089 strain Oxford/ATCC9144) and Staphylococcus epidermidis (laboratory strain from clinical isolate) were selected for bacteriological studies as representative Gram-negative (E. coli and P. aeruginosa) and Gram-positive (S. aureus and S. epidermidis) species. Bacterial cultures were prepared by streaking bacterial strains onto LB agar plates with an inoculation loop and incubated overnight at 37 °C. A single colony was selected and placed in 5 mL of Iso-sensitest broth (Oxoid, ThermoScientific) and incubated with shaking for 16–18 h at 37 °C to provide liquid cultures for testing.
MIC values were obtained according to the protocol described by J. M. Andrews et al.[58] and were conducted in 96-well plates (Sarstedt). Bacteria were grown from overnight cultures in Iso-sensitest broth to an A650nm of 0.07 equivalent to a 0.5 MacFarland standard (240 μM BaCl2 in 0.18 M H2SO4). This culture was diluted ten-fold with Iso-sensitest broth before use. Peptoids were initially dissolved in DMSO (5 mM) and diluted further in Iso-sensitest broth to achieve a concentration range of 4–200 μM using 2-fold serial dilutions. 50 μl of inoculum and 50 μl of peptoid solution were added to each test well (final concentration range of 2–100 μM). Experiments were performed in triplicate. A positive control for bacterial growth contained only the inoculum and Iso-sensitest broth. Other controls contained the inoculum and serial dilutions of ampicillin (from 250 μg mL^–1 to 2 μg mL^–1), serial dilutions of DMSO and the inoculum to confirm no inhibitory effect on bacterial growth, and Iso-sensitest broth alone as a sterile control. […] Quantitative data was attained from absorbance values using a Biotek Synergy H4 plate reader.
Antibacterial MIC determination
Escherichia coli K-12 wild-type strain (W3110 / ATCC27325, F-, λ-, rpoS(Am), rph-1, Inv(rrnD-rrnE)), Pseudomonas aeruginosa PA01 (ATCC 15692) Staphylococcus aureus (3R7089 strain Oxford / ATCC9144) and Staphylococcus epidermidis (laboratory strain from clinical isolate) were selected for bacteriological studies as representative Gram-negative (E. coli and P. aeruginosa) and Gram-positive (S. aureus and S. epidermidis) species. Bacterial cultures were prepared by streaking bacterial strains onto LB agar plates with an inoculation loop and incubated overnight at 37 °C.
A single colony was selected and placed in 5 mL of Iso-sensitest broth (Oxoid, ThermoScientific) and incubated with shaking for 16-18 h at 37 °C to provide liquid […]
MIC values were obtained according to the protocol described by J. M. Andrews et al.1 and were conducted in 96-well plates (Sarstedt). Bacteria were grown from overnight cultures in Iso-sensitest broth to an A650nm of 0.07 equivalent to a 0.5 MacFarland standard (240 μM BaCl2 in 0.18 M H2SO4). This culture was diluted ten-fold with Iso-sensitest broth before use. Peptoids were initially dissolved in DMSO (5 mM) and diluted further in Iso-sensitest broth to achieve a concentration range of 4 – 200 µM using 2-fold serial dilutions. 50 μl of inoculum and 50 μl of peptoid solution were added to each test well (final concentration range of 2 – 100 µM). Experiments were performed in triplicate. A positive control for bacterial growth contained only the inoculum and Iso-sensitest broth. Other controls contained the inoculum and serial dilutions of ampicillin (from 250 µg/mL to 2 µg/mL), serial dilutions of DMSO and the inoculum to confirm no inhibitory effect on bacterial growth, and Iso-sensitest broth alone as a sterile control. […]
growth after incubation at 37 °C for 16 h with shaking. Quantitative data was attained from absorbance values using a Biotek Synergy H4 plate reader.

Compound	Selectivity Index HaCaT, E. coli	Selectivity Index HepG2, E. coli	Average selectivity E. coli
NCCCCNCC(=O)N(CC(=O)N(CC(=O)N(CCCCN)CC(=O)N(CC(=O)N(CC(=O)N(CCCCN)CC(=O)N(CC(=O)N(CC(=O)N(CCCCN)CC(=O)N(CC(=O)N(CC(N)=O)Cc1ccccc1)Cc1ccccc1)Cc1ccccc1)Cc1ccccc1)Cc1ccccc1)Cc1ccccc1)Cc1ccccc1)Cc1ccccc1 [Peptoid 4, (NLysNpheNphe)4] (H-[Nlys][Nphe][Nphe][Nlys][Nphe][Nphe][Nlys][Nphe][Nphe][Nlys][Nphe][Nphe]-NH2)	3	> 8	–
C[C@@H](c1ccccc1)N(CC(N)=O)C(=O)CN(Cc1ccc(F)cc1)C(=O)CN(CCCCN)C(=O)CN(C(=O)CN(Cc1ccc(F)cc1)C(=O)CN(CCCCN)C(=O)CN(C(=O)CN(Cc1ccc(F)cc1)C(=O)CNCCCCN)[C@@H](C)c1ccccc1)[C@@H](C)c1ccccc1 [Peptoid 27, (NLysNpfbNspe)3]	2	1	2
C[C@@H](c1ccccc1)N(CC(N)=O)C(=O)CN(C(=O)CN(CCN)C(=O)CN(C(=O)CN(C(=O)CN(CCN)C(=O)CN(C(=O)CN(C(=O)CNCCN)[C@@H](C)c1ccccc1)[C@@H](C)c1ccccc1)[C@@H](C)c1ccccc1)[C@@H](C)c1ccccc1)[C@@H](C)c1ccccc1 [Peptoid 17, (NaeNspeNspe)3]	> 4	> 4	> 4
N=C(N)NCCCCNCC(=O)N(CC(=O)N(CC(=O)N(CCCCNC(=N)N)CC(=O)N(CC(=O)N(CC(=O)N(CCCCNC(=N)N)CC(=O)N(CC(=O)N(CC(=O)N(CCCCNC(=N)N)CC(=O)N(CC(=O)N(CC(N)=O)Cc1ccccc1)Cc1ccccc1)Cc1ccccc1)Cc1ccccc1)Cc1ccccc1)Cc1ccccc1)Cc1ccccc1)Cc1ccccc1 [Peptoid 33, (NhArgNpheNphe)4] (H-[NhArg][Nphe][Nphe][NhArg][Nphe][Nphe][NhArg][Nphe][Nphe][NhArg][Nphe][Nphe]-NH2)	> 17	–	> 17
NCCCCNCC(=O)N(CC(=O)N(CC(=O)N(CCCCN)CC(=O)N(CC(=O)N(CC(=O)N(CCCCN)CC(=O)N(CC(=O)N(CC(N)=O)Cc1ccc(F)cc1)Cc1ccc(F)cc1)Cc1ccc(F)cc1)Cc1ccc(F)cc1)Cc1ccc(F)cc1)Cc1ccc(F)cc1 [Peptoid 23, (NLysNpfbNpfb)3] (H-[Nlys][N(4-F-Bzl)Gly][N(4-F-Bzl)Gly][Nlys][N(4-F-Bzl)Gly][N(4-F-Bzl)Gly][Nlys][N(4-F-Bzl)Gly][N(4-F-Bzl)Gly]-NH2)	> 8	3	–
NCCCCNCC(=O)N(CC(=O)N(CC(=O)N(CCCCN)CC(=O)N(CC(=O)N(CC(=O)N(CCCCN)CC(=O)N(CC(=O)N(CC(N)=O)Cc1ccccc1)Cc1ccccc1)Cc1ccccc1)Cc1ccccc1)Cc1ccccc1)Cc1ccccc1 [Peptoid 5, (NLysNpheNphe)3]	> 2	> 2	> 2
C[C@@H](c1ccccc1)N(CC(N)=O)C(=O)CN(C(=O)CN(CCCCN)C(=O)CN(Cc1ccc(F)cc1)C(=O)CN(Cc1ccc(F)cc1)C(=O)CN(CCCCN)C(=O)CN(C(=O)CN(C(=O)CN(CCCCN)C(=O)CN(Cc1ccc(F)cc1)C(=O)CN(Cc1ccc(F)cc1)C(=O)CNCCCCN)[C@@H](C)c1ccccc1)[C@@H](C)c1ccccc1)[C@@H](C)c1ccccc1 [Peptoid 28, [(NLysNpfbNpfb)(NLysNspeNspe)]2]	> 17	9	> 13
NCCCCCCNCC(=O)N(CC(=O)N(CC(=O)N(CCCCCCN)CC(=O)N(CC(=O)N(CC(=O)N(CCCCCCN)CC(=O)N(CC(=O)N(CC(N)=O)Cc1ccccc1)Cc1ccccc1)Cc1ccccc1)Cc1ccccc1)Cc1ccccc1)Cc1ccccc1 [Peptoid 2, (NahNpheNphe)3] (H-[Gly(N-(CH2)6NH2)][Nphe][Nphe][Gly(N-(CH2)6NH2)][Nphe][Nphe][Gly(N-(CH2)6NH2)][Nphe][Nphe]-NH2)	> 2	> 2	–
NCCNCC(=O)N(CC(=O)N(CC(=O)N(CCN)CC(=O)N(CC(=O)N(CC(=O)N(CCN)CC(=O)N(CC(=O)N(CC(=O)N(CCN)CC(=O)N(CC(=O)N(CC(N)=O)Cc1ccccc1)Cc1ccccc1)Cc1ccccc1)Cc1ccccc1)Cc1ccccc1)Cc1ccccc1)Cc1ccccc1)Cc1ccccc1 [Peptoid 7, (NaeNpheNphe)4] (H-[Gly(N-2-aminoethyl)][Nphe][Nphe][Gly(N-2-aminoethyl)][Nphe][Nphe][Gly(N-2-aminoethyl)][Nphe][Nphe][Gly(N-2-aminoethyl)][Nphe][Nphe]-NH2)	> 8	> 8	> 8
C[C@@H](c1ccccc1)N(CC(N)=O)C(=O)CN(C(=O)CN(CCCCNC(=N)N)C(=O)CN(C(=O)CN(C(=O)CN(CCCCNC(=N)N)C(=O)CN(C(=O)CN(C(=O)CN(CCCCN)C(=O)CN(C(=O)CN(C(=O)CNCCCCN)[C@@H](C)c1ccccc1)[C@@H](C)c1ccccc1)[C@@H](C)c1ccccc1)[C@@H](C)c1ccccc1)[C@@H](C)c1ccccc1)[C@@H](C)c1ccccc1)[C@@H](C)c1ccccc1 [Peptoid 41, (NLysNspeNspe)2(NhArgNspeNspe)2] (H-[Nlys][Nspe][Nspe][Nlys][Nspe][Nspe][NhArg][Nspe][Nspe][NhArg][Nspe][Nspe]-NH2)	> 6	–	> 6
NCCCCNCC(=O)N(CC(=O)N(CC(=O)N(CCCCN)CC(=O)N(CC(=O)N(CC(=O)N(CCCCN)CC(=O)N(CC(=O)N(CC(N)=O)Cc1cccc(F)c1)Cc1cccc(F)c1)Cc1cccc(F)c1)Cc1cccc(F)c1)Cc1cccc(F)c1)Cc1cccc(F)c1 [Peptoid 25, (NLysNmfbNmfb)3]	5	–	–
(NhArgNmfbNmfb)4 [Peptoid 36]	2	2	2
C[C@@H](c1ccccc1)N(CC(N)=O)C(=O)CN(C(=O)CN(CCCCN)C(=O)CN(Cc1ccc(F)cc1)C(=O)CN(Cc1ccc(F)cc1)C(=O)CN(CCCCN)C(=O)CN(C(=O)CN(C(=O)CNCCCCN)[C@@H](C)c1ccccc1)[C@@H](C)c1ccccc1)[C@@H](C)c1ccccc1 [Peptoid 29, (NLysNspeNspe)(NLysNpfbNpfb)(NLysNspeNspe)]	5	3	4
C[C@@H](c1ccccc1)N(CC(N)=O)C(=O)CN(C(=O)CN(CCCCN)C(=O)CN(C(=O)CN(C(=O)CN(CCCCN)C(=O)CN(C(=O)CN(C(=O)CNCCCCN)[C@@H](C)c1ccccc1)[C@@H](C)c1ccccc1)[C@@H](C)c1ccccc1)[C@@H](C)c1ccccc1)[C@@H](C)c1ccccc1 [Peptoid 14, (NLysNspeNspe)3] (H-[Nlys][Nspe][Nspe][Nlys][Nspe][Nspe][Nlys][Nspe][Nspe]-NH2)	> 8	> 8	> 8
